PMC2954837

Sequences of proteins named here, by UniProt entry; tags and fusion partners are left off. A change or cut given only in a name is not applied to a line headed by its entry.
UniProt P15066: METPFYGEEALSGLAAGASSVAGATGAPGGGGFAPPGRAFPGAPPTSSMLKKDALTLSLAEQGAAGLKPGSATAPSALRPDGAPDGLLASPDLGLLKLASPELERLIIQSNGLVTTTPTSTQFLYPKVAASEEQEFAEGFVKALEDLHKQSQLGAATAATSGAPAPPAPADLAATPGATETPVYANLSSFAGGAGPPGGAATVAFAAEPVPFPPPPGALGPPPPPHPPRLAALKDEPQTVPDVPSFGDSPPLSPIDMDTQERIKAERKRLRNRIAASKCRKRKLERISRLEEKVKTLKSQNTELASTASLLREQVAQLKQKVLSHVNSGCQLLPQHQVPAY
UniProt P05627, whole entry: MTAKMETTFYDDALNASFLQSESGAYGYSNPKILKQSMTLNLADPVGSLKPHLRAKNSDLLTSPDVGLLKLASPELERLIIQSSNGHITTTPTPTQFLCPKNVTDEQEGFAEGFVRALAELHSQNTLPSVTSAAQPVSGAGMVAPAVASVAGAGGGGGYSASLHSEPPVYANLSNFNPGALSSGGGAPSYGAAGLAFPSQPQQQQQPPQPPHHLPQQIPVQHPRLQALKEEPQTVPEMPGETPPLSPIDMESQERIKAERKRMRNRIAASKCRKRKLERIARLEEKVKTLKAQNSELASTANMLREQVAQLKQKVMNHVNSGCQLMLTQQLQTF
UniProt P48755: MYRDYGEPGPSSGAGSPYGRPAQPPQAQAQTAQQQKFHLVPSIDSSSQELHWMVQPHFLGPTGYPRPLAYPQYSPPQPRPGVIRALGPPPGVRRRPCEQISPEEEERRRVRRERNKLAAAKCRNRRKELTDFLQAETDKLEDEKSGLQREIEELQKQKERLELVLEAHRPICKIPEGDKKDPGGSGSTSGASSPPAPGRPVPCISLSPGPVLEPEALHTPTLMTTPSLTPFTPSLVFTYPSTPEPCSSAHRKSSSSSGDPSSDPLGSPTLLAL
UniProt P09450: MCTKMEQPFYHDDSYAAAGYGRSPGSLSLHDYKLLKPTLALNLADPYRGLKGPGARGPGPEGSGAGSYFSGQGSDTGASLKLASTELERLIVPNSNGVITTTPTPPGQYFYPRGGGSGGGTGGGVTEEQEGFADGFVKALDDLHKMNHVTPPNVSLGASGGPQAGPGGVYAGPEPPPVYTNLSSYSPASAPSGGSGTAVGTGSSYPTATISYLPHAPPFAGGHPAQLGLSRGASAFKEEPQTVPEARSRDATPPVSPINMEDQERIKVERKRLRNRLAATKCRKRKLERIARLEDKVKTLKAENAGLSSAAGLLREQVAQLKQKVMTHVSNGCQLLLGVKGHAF
UniProt P47930: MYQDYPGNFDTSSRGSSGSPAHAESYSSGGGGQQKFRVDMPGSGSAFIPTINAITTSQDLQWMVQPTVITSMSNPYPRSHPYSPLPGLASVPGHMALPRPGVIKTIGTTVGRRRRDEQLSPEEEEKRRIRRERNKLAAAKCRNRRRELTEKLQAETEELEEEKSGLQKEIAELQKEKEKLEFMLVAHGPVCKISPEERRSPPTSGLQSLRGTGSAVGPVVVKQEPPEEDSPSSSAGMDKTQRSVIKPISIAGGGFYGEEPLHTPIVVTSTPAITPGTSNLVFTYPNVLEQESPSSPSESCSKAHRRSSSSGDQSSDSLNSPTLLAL

Experiments:
Experiment in all cases: EMSA supershift
Details in all cases: uninfected macrophage nuclear extract, poly(dI-dC); 8% glycerol, 1% Ficoll, 25 mM KCl, 25 mM NaCl, 1 mM DTT, 0.5 mM EDTA, 1 ug/ul BSA, 200 ng/ul poly(dI-dC); protein in an extract; label: 32P
[1] = molecular target: Jun D (mouse (murine B10R macrophages)) (UniProt P15066)
[2] = molecular target: c-Jun (mouse (murine B10R macrophages)) (UniProt P05627)
[3] = molecular target: Fra-1 (mouse (murine B10R macrophages)) (UniProt P48755)
[4] = molecular target: Jun B (mouse (murine B10R macrophages)) (UniProt P09450)
[5] = molecular target: Fra-2 (mouse (murine B10R macrophages)) (UniProt P47930)

Measured: binding result

CGTTTGATGACTCAGCCGGAA (double strand) [AP-1 consensus oligonucleotide]
binds: [1] | [2] | [3] | [4] | [5]

Construct, isoform or probe ends are uncertain for at least one entry. Where cells or extracts were used, other partners may take part.
